From patent US20230013402A1, “REGENERATING FUNCTIONS AND PHENOTYPES OF CONNECTIVE TISSUE THROUGH NPAS2 SUPPRESSION” (The Regents of the University of California, priority 2019, published 2023)
Read-outs that look alike come from different tables or passages of the source.

Test system: human skin fibroblasts
Test: High-throughput cell migration assay (Oris Pro Cell Migration Assay plate) / standardized viability
Type: cell-based
Description: Mouse MSC carrying Npas2-LacZ reporter gene, as described by Hassan N, et al., PLoS One. 2017; 12(8):e0183359, which is incorporated by reference herein in its entirety, was immortalized using SV40 in order to accommodate a large-scale HTS. […] This cell system was used to screen FDA Approved Drug Library (1120 compounds). The same library was also screened for cell viability by Calcein AM Hoechst 33342 staining Cell migration assays using the Oris™ Pro Cell Migration Assay plate, as described by Joy M E et al., PloS one. 2014; 9(2):e88350, which is incorporated by reference herein in its entirety, was used for a high-throughput migration assay using human skin fibroblasts
The combined Z score was used to identify hit compounds (Table 1).

How did the “Migration (standardized viability) Z Score” value turn out when `CN1[C@@H]2CC[C@H]1CC(OC(=O)C(CO)c1ccccc1)C2.CN1[C@@H]2CC[C@H]1CC(OC(=O)C(CO)c1ccccc1)C2.O.O=S(=O)(O)O` (some centres unmarked) [Atropine sulfate monohydrate] was run?
The value was 0.181.

`CC(C)NC[C@H](O)COc1ccc(CC(N)=O)cc1` [(S)-(-)-Atenolol, (S)-(−)-Atenolol] was tested. Which “Migration (standardized viability) Z Score” value (Table 2, additional Npas2 expression suppressors) did it give?
The value was 0.429.
